Values from PubChem BioAssay AID1508597 (Cure First, 2020).
Shown is a random part of the about 2,100 reagents, in one setting of the screen. 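Calls flag viability under 80% in either arm, not effects specific to rucaparib; the reference for percent is not stated.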 Entries without a mark were called inactive. A reagent listed more than once was tested more than once; the source does not tell the runs apart. No sequences are given here. Not given: the 100% reference.

- Assay: 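Knock-downs altering ovarian cancer cell survival with or without PARP inhibitor rucaparib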 (primary screen)
- System: human ovarian carcinoma lines grown from tumours: OCI-P5x (papillary serous) and OCI-C5x (clear cell)
- Knock-down reagent: siRNA pool against human genes, 1.25 pmol siRNA per well
- Duration: 72 h or 96 h, depending on the cell culture
- Conditions: rucaparib 20 µM (about IC30) or vehicle, present until read-out
- Rucaparib or vehicle: Rucaparib
- Cell line: OCI-C5x (clear cell)
- Read-out: 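Luminescent ATP-based viability assay read 72 or 96 h after transfection, depending on culture, given as normalised percent viability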
- Scale: viability, normalised: higher = more viable cells remaining
- Active means: 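a well counts as a hit if its normalised viability is under 80 percent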
- Calls: active = viability under 80%; inactive = viability 80% or more

| target gene | technical replicate | viability, normalised (%) |
| --- | --- | --- |
| CILK1 (GeneID 22858) | 1 | 44.7 (active) |
| CILK1 (GeneID 22858) | 2 | 39.9 (active) |
| CILK1 (GeneID 22858) | 3 | 32.8 (active) |
| H2AC4 (GeneID 8335) | 1 | 47.7 (active) |
| H2AC4 (GeneID 8335) | 2 | 78.7 (active) |
| H2AC4 (GeneID 8335) | 3 | 67.7 (active) |
| LIMK1 (GeneID 3984) | 1 | 40.3 (active) |
| LIMK1 (GeneID 3984) | 2 | 47.4 (active) |
| LIMK1 (GeneID 3984) | 3 | 55.6 (active) |
| TDRD1 (GeneID 56165) | 1 | 64 (active) |
| TDRD1 (GeneID 56165) | 2 | 68.1 (active) |
| TDRD1 (GeneID 56165) | 3 | 44.6 (active) |
| PRKCQ (GeneID 5588) | 1 | 97.2 |
| PRKCQ (GeneID 5588) | 2 | 91.1 |
| PRKCQ (GeneID 5588) | 3 | 82.1 |
| MAP3K19 (GeneID 80122) | 1 | 54.6 (active) |
| MAP3K19 (GeneID 80122) | 2 | 63.2 (active) |
| MAP3K19 (GeneID 80122) | 3 | 54.7 (active) |
| HMGN3 (GeneID 9324) | 1 | 52.6 (active) |
| HMGN3 (GeneID 9324) | 2 | 44.3 (active) |
| HMGN3 (GeneID 9324) | 3 | 59.4 (active) |
| TFAM (GeneID 7019) | 1 | 68 (active) |
| TFAM (GeneID 7019) | 2 | 44.5 (active) |
| TFAM (GeneID 7019) | 3 | 68 (active) |
| BMPR1B (GeneID 658) | 1 | 47.1 (active) |
| BMPR1B (GeneID 658) | 2 | 39.8 (active) |
| BMPR1B (GeneID 658) | 3 | 48.5 (active) |
| NEK4 (GeneID 6787) | 1 | 44 (active) |
| NEK4 (GeneID 6787) | 2 | 45.1 (active) |
| NEK4 (GeneID 6787) | 3 | 40.6 (active) |
| PRKAR1B (GeneID 5575) | 1 | 46.3 (active) |
| PRKAR1B (GeneID 5575) | 2 | 53 (active) |
| PRKAR1B (GeneID 5575) | 3 | 68.7 (active) |
| PARP6 (GeneID 56965) | 1 | 36.6 (active) |
| PARP6 (GeneID 56965) | 2 | 34.7 (active) |
| PARP6 (GeneID 56965) | 3 | 28.1 (active) |
| VRK1 (GeneID 7443) | 1 | 59.3 (active) |
| VRK1 (GeneID 7443) | 2 | 51.5 (active) |
| VRK1 (GeneID 7443) | 3 | 44.6 (active) |
| TAF7 (GeneID 6879) | 1 | 57.1 (active) |
| TAF7 (GeneID 6879) | 2 | 59.6 (active) |
| TAF7 (GeneID 6879) | 3 | 45.9 (active) |
| PRG3 (GeneID 10394) | 1 | 63.8 (active) |
| PRG3 (GeneID 10394) | 2 | 64.7 (active) |
| PRG3 (GeneID 10394) | 3 | 54.9 (active) |
| SIRT1 (GeneID 23411) | 1 | 30.5 (active) |
| SIRT1 (GeneID 23411) | 1 | 91.8 |
| SIRT1 (GeneID 23411) | 2 | 77.9 (active) |
| SIRT1 (GeneID 23411) | 2 | 32.8 (active) |
| SIRT1 (GeneID 23411) | 3 | 28.3 (active) |
| SIRT1 (GeneID 23411) | 3 | 96.4 |
| SMARCAD1 (GeneID 56916) | 1 | 47 (active) |
| SMARCAD1 (GeneID 56916) | 2 | 42.7 (active) |
| SMARCAD1 (GeneID 56916) | 3 | 36.5 (active) |
| STK38L (GeneID 23012) | 1 | 92.9 |
| STK38L (GeneID 23012) | 2 | 121 |
| STK38L (GeneID 23012) | 3 | 92.9 |

Records listed so far whose gene name starts with C or c:
| target gene | technical replicate | viability, normalised (%) |
| --- | --- | --- |
| CILK1 (GeneID 22858) | 1 | 44.7 (active) |
| CILK1 (GeneID 22858) | 2 | 39.9 (active) |
| CILK1 (GeneID 22858) | 3 | 32.8 (active) |
